Part of at least one peptide drawing is inferred or uncertain, most often the ends. Numbered stars: 1 amine (or outer) side, 2 acyl side, 3 side chain; on linkers, the order of the positions; unused ones are H or OH. Square brackets hold non-standard residues; d marks the D form. Peptide text beside a SMILES is read from it. * marks the point of attachment. X2 = O=C(Cc1ccc(N[*:1])cc1)[*:2]; X1 = O=C(C(CS)Cc1ccccc1)*
Key:
Endopeptidase 24.11 = target: T1, Endopeptidase 24.11 (Rattus norvegicus, UniProt P07861); experiment: Inhibition of endopeptidase 24.11 (cleavage of rANP(99-126), HPLC); assay type: biochemical; settings: in words, from Table 3
T1 construct: rat urine was collected and desalted on Sephadex G-25; from tissue; host or cells: rat urine, desalted on Sephadex G-25
T1 sequence (P07861 1-750): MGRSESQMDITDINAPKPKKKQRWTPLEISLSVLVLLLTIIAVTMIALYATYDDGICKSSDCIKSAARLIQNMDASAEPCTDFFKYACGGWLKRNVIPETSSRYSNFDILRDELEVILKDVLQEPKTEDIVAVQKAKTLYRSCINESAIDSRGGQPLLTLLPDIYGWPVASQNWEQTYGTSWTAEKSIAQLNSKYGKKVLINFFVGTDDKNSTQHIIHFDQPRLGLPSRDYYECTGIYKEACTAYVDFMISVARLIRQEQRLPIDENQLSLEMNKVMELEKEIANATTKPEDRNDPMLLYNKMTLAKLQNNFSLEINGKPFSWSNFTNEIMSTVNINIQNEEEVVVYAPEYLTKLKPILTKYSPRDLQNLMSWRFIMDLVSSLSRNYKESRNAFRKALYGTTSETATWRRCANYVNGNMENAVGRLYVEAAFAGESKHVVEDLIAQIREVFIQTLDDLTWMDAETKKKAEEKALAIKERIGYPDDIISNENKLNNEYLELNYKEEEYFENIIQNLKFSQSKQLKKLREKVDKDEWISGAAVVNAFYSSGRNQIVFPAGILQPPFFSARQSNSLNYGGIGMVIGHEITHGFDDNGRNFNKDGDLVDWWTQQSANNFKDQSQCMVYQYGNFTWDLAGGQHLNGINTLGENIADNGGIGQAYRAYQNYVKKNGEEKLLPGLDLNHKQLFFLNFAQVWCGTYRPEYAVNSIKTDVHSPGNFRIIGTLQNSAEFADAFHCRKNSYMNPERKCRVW
Procedure: Endopeptidase 24.11 inactivates ANP by cleavage at the Cys^105 -Phe^106 amide bond. The ability of the compounds of the invention to inhibit this degradation was assayed by a modification of the procedure of Ura, N., et al, Kidney Int (1987) 32:507-513 by substituting rANP(99-126) for bradykinin as a substrate.
Briefly, rat urine was collected and desalted on Sephadex G-25 as described by Ura (supra) and 4 ul of sample in 100 ul 0.1M Tris buffer, pH 7.2 containing aminopeptidase inhibitor bestatin (10 ug/ml), potato tuber carboxy peptidase inhibitor (10 ug/ml) and aprotinin (5,000 kalikrein inhibitory unit/ml) were incubated for 15 min at 37° C. The assay was then initiated by addition of 2-10 ug rANP(99-126) to a final volume of 0.5 ml and incubated at 10-20 min at 37° C. Termination of the reaction was accomplished by boiling, spinning and freezing.
Compounds to be tested for their ability to inhibit the endopeptidase were added to the preincubation mixture 15 min before addition of substrate.
The frozen samples, incubated with or without inhibitor, were thawed and analyzed by HPLC to determine the concentration of starting rANP(99-126) and its degradation product. HPLC analysis was conducted on Vydac C18 reverse phase HPLC column (4.6 mm ID×12.5 cm; 5 uM, 300A). […] The effluent was monitored at 220 nm and the peptide peak heights measured. […]

[1] = test system: Female Sprague-Dawley rats; experiment: In vivo diuresis and natriuresis in anesthetized rats; parameters: species or system rat
Procedure: The ability of analog #1 to effect diuresis and natriuresis in whole animals was determined as follows. Female Sprague-Dawley rats (230-260 g) anesthetized with inactin (100 mg/kg body weight) were catheterized by placing cannulae in femoral artery (B.P. monitoring), femoral vein (infusion of drugs and saline) and bladders (collection of urine). Post surgery, and prior to administration of test substance, saline was infused at 20 ul/min for 45 min in order to stabilize urine flow. Stabilization of urine flow was determined by collection of urine during several 10 min periods. Once stable urine flow was obtained, three 10 min control periods were collected followed by infusion of test compounds at 20 ul/min for 1 hr after priming with 10 times the infusion dose. Following experimental infusion period, saline was infused at 20 ul/min for 2 additional hr during the recovery phase. The urine volume collected during ten minute collection periods was determined gravimetrically. Urinary sodium excretion UNa V was determined photometrically.
Analog #1 infused at 10 ug/kg/min gives a mean 10-fold increase in urinary sodium excretion and a 2- to 3-fold increase in urinary flow rate. Maximal effects are not observed until the second or third experimental collection period and are sustained through the infusion.

[2] = target: T2, clearance receptor in isolated perfused rat kidney (Rattus norvegicus, UniProt P41740); experiment: Rat kidney receptor binding assay (isolated perfused rat kidney); settings: 1 × 10^-6 M
T2 construct: the clearance receptor in isolated perfused rat kidney; from tissue; host or cells: isolated perfused rat kidney
T2 sequence (P41740 41-535): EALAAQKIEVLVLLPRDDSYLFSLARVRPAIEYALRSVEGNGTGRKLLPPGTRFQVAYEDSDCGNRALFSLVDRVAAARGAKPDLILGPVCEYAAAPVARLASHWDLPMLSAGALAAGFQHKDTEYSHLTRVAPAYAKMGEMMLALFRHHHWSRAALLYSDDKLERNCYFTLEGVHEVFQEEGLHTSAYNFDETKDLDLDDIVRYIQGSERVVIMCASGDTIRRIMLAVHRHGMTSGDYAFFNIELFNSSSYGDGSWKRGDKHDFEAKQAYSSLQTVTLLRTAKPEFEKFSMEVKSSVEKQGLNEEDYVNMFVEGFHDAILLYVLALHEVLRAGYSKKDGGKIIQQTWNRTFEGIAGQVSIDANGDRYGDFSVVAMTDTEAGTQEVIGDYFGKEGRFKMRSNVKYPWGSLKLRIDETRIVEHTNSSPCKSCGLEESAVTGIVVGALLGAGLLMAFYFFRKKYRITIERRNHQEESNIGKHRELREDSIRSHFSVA
Description: The assay systems used are adapted from those of Schenk, D. B., et al, Biochem Biophys Res Commun (1985) 127:433-442 and Scarborough, R. M., J Biol Chem (1986) 261:12960-12964. These assays measure clearance receptor binding affinity through competition with ANP using the receptors on bovine aortic smooth muscle (BASM) or bovine aortic endothelial (BAE) cells. Also employed is the receptor binding affinity assay for the clearance receptor in isolated perfused rat kidney as described by Maack, T., et al, Science (1987) 238:675-679.
In the rat kidney receptor binding assay, the native 28-residue labeled ANP was used: I^125 labeled rANP(99-126), with the label linked to tyrosine at 126. The results of this assay are shown in Table 2 as the ratio of bound-to-free labeled rANP(99-126) in the presence and absence of competing compound.

[3] = 10 ug/kg/min infusion, rats, mean ± SE, n = 7

Row | Structure (SMILES) | potency as inhibitor compared with thiorphan (Endopeptidase 24.11) | increase in urinary sodium excretion ([1]; 10 ug/kg/min infusion, anesthetized rats, mean) [fold] | UNa V (urinary sodium excretion), difference between experimental and control periods [1, 3] [uEq/min] | V (urine flow), difference between experimental and control periods [1, 3] [µL/min] | return to baseline urine flow and sodium excretion rates after infusion ([1]; compared to ANP(102-126), recovery phase) | competition with labeled rANP(99-126) for receptor [2]
1 | CC[C@H](C)[C@H](NC(=O)[C@H](CCCNC(=N)N)NC(=O)[C@H](CC(=O)O)NC(=O)[C@@H](NC(=O)[C@H](CCCNC(=N)N)NC(=O)CNC(=O)CNC(=O)C(CS)Cc1ccccc1)[C@@H](C)CC)C(N)=O (stereo partly drawn) [Analog 1, MBP-G-G-R-I-D-R-I-NH2] (X1-GGRIDRI-NH2) | less potent than thiorphan | 10 | 3.72 ±1.1 | 11.6 ± 2.7 | Slow return to baseline | 
2 | CC[C@H](C)[C@H](NC(=O)[C@H](CCCNC(=N)N)NC(=O)[C@H](CC(=O)O)NC(=O)[C@@H](NC(=O)[C@H](CCCNC(=N)N)NC(=O)Cc1ccc(NC(=O)C(CS)Cc2ccccc2)cc1)[C@@H](C)CC)C(N)=O (stereo partly drawn) [Analog 122, MBP-4-APA--R--I--D--R--I--NH2] (X1-[X2]RIDRI-NH2) | only slightly less potent than thiorphan |  |  |  |  | 
3 | CC[C@H](C)[C@H](NC(=O)[C@H](CCCNC(=N)N)NC(=O)[C@H](CC(=O)O)NC(=O)[C@@H](NC(=O)[C@H](CCCNC(=N)N)NC(=O)CNC(=O)CNC(=O)[C@H](Cc1ccccc1)NC(Cc1ccccc1)C(=O)O)[C@@H](C)CC)C(N)=O (stereo partly shown) [Analog 436] |  |  |  |  |  | successfully competes
